Data from US4242261A, “Production of methylene-cycloamines” (A. H. Robins Company, Inc., priority 1979, dated 1980).

System: Tetrabenazine-Induced Ptosis
Test: Blockade of Tetrabenazine-Induced Ptosis in Mice (antidepressant activity)
Format: in vivo, mice (ICR-DUB strain)
Details: slope function of the ED50 determination (Litchfield and Wilcoxon); IP; Table 1
Description: Thirty minutes later the presence or absence of complete eyelid closure (ptosis) is assessed in each animal. For compounds which produced blockage of ptosis in all animals, and ED50 value is obtained using a minimum of three geometrically spaced dosages with five mice/dose.

**Q.** How did the slope turn out when CN(C)CCCN1c2ccccc2CCc2ccccc21 [imipramine] was run?
**A.** The slope was 2.6 and 2.5 and 2.3.

**Q.** For CCOc1ccccc1OCC1CNCCO1 (centres unmarked) [viloxazine], which slope is on record?
**A.** The slope was 2.5.

Where “and” joins values, the source holds several entries; their conditions need not be identical. Identical values can stand only once.
